Measured values published in patent publication US5958954.

Tested on: RAR-alpha/RXR-alpha heterodimer
Assay: EMSA
Details: retarded species only with RAR/RXR combination; not diminished by 10^-6 M AGN 193109; protein translated in vitro; label: end-labeled

Does “TCAGGTCACCAGGAGGTCAGA (double strand) [DR-5 RARE probe]” bind?
Result: binds

Construct, isoform or probe ends are uncertain for at least one entry.
